According to PubChem BioAssay AID662 (National Center for Advancing Translational Sciences (NCATS), 2007):
The other results are listed elsewhere or left out. The main result of the screen is listed elsewhere. These columns were measured beside it and carry no call. Compounds called inactive in the main read-out are mostly missing here. The note in brackets gives the kind of curve behind each potency; many fits are weak.

Experiment: Cell signaling CRE-BLA (Fsk stim)
Details: CHO CRE-bla reporter (cAMP response element driving beta-lactamase), forskolin EC10, beta-lactamase ratio; measured here: 460 nm blue channel
Procedure, shortened: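 CRE-bla CHO reporter cells treated with compound titration plus EC10 NKH 477 (water-soluble forskolin), incubated 3 h at 37 °C; CCF4 loading 2 h at room temperature, 460/530 nm emission ratio read, AC50 values derived for positive or negative modulators.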

SMILES	AC50
COc1cc(C(=O)NCc2cn3cccc(C)c3n2)cc(OC)c1OC	7.94 µM [rising, partial curve]
c1ccc(-n2nnnc2Sc2n[nH]c(-c3ccncc3)n2)cc1	3.98 µM [falling, partial curve]
N#Cc1cccc(NC(=O)N2CCC3(CC2)CCN(C(=O)c2csnn2)CC3)c1	25.1 µM [rising, single point]
COCCn1c(=O)c(-c2ccccc2)nc2cnc(N3CCNCC3)nc21	12.6 µM [rising, partial curve]
CC1Cc2ccccc2N1C(=O)CN1C(=O)NC(C)(c2ccc3c(c2)OCCO3)C1=O (stereo not drawn)	0.126 µM [falling, partial curve, poor fit]
CC1CCc2c(sc(NC(=O)c3ccc(Cn4cc(Br)cn4)o3)c2C(N)=O)C1 (stereo not drawn)	12.6 µM [rising, partial curve]
Cn1nc(-c2ccc(C(=O)Nc3cccnc3)cc2)c2ccccc2c1=O	3.98 µM [rising, partial curve]
CCn1cc(C(=O)NCc2ccc3c(c2)OCO3)c(=O)c2cc(S(=O)(=O)N3CCOCC3)ccc21	10 µM [rising, partial curve]
CCC(=O)Nc1c(C#N)c2nc3ccccc3nc2n1-c1ccc(C)cc1	2 µM [rising, full curve]
CCCCSc1nc(CCC)cc(=O)[nH]1	15.8 µM [rising, partial curve]
O=c1c(-c2cc(F)cc(F)c2)nc2cnc(Nc3ccccc3)nc2n1C[C@H]1CCCO1	20 µM [rising, partial curve]
CCOCCCNC(=O)c1[nH]c(C)c(C(C)=O)c1C	5.01 µM [falling, single point]
CC(C)Cn1c(=O)c(C(=O)Nc2ccccc2S(N)(=O)=O)c(O)c2ccccc21	25.1 µM [falling, single point]
CCCCNC(=O)CCC(=O)Nc1ncc(-c2ccc(C)cc2)n1C	0.794 µM [falling, full curve, poor fit]
C=C(C)COc1ccc(-c2nc(N)ncc2Oc2ccc(OC)cc2)c(O)c1	2.51 µM [rising, full curve]
CN(C)/C=C1\C(=O)c2ccc(N(C)C)nc2CC1c1ccccc1 (stereo not drawn)	12.6 µM [rising, partial curve]
Cc1c(C(=O)Nc2ccc3oc(-c4cccnc4)nc3c2)oc2ccccc12	2.51 µM [rising, full curve]
CCOC(=O)c1ccc2[nH]cc(C(C)=O)c(=O)c2c1	0.02 µM [falling, full curve, poor fit]
Brc1c(CSc2nnc(-c3ccco3)o2)nc2ccccn12	20 µM [rising, single point]
CNc1nc(NC)nc(-n2c(C(F)(F)F)nc3ccccc32)n1	15.8 µM [rising, single point]
CCOC(=O)c1c(C)c(C(=O)Nc2cc(OC)ccc2OC)c(C)n1CC	6.31 µM [rising, partial curve]
COCCNC(=O)c1cc2c(-c3ccc(Cl)cc3)nn(C)c2s1	3.98 µM [rising, full curve]
CC(=O)Nc1ccc(OC[C@@H](O)CNC(C)C)cc1	31.6 µM [falling, single point]

SMILES	AC50
COc1ccc(OC)c(NC(=O)CSc2nc3c(c(=O)n(C)c(=O)n3C)n2C)c1	2 µM [rising, full curve]
COc1ccc(C(=O)CSc2nnc(-c3ccccc3)o2)cc1	0.00316 µM [falling, full curve, poor fit]
Cc1cc2n(n1)C(c1ccc(O)cc1)Nc1ccccc1-2 (stereo not drawn)	25.1 µM [rising, single point]
CCCCNc1nc(C)nc2c1nc(-c1ccccc1)n2CCN1CCCCC1	12.6 µM [rising, single point]
CN(CCNC(=O)c1cccc(N2CCCC2=O)c1)Cc1ccccc1	0.126 µM [rising, partial curve, poor fit]
CCNc1ncc2nc(-c3ccc(Cl)cc3)c(=O)n(-c3ccccc3)c2n1	3.98 µM [rising, partial curve]
CCOC(=O)CSc1nnnn1-c1cc(OC)ccc1OC	3.16 µM [falling, single point]
CN=C(Nc1cc(C)nn1CCC#N)c1ccc(F)cc1	25.1 µM [rising, single point]
CCOC(=O)c1cc(-c2ccc(F)cc2)n(CC(=O)Nc2nccs2)c1C	25.1 µM [falling, single point]
CCOC(=O)c1cncc(NC(=O)c2ccccc2)c1	25.1 µM [rising, single point]
CCc1c(C)c2cc(Cl)c(O)c(CN(C)C)c2oc1=O	10 µM [rising, partial curve]
Cc1cc(=O)cc(C)n1-c1ccccc1N1CCOCC1	3.98 µM [falling, single point]
Nn1c(SCc2cccc3ccccc23)nnc1-c1ccco1	3.98 µM [falling, full curve, poor fit]
COc1cc2c(cc1OC)C1=C(C#N)CN(CC(=O)O)CN1CC2	5.01 µM [rising, partial curve]
C=CCn1c(SCc2nc(N)nc(N3CCCCC3)n2)nnc1-c1ccco1	10 µM [rising, single point]
CCCN(CCC)c1nc(NC2CCN(C(=O)OCC)CC2)nc(OC)n1	25.1 µM [falling, single point]
Cc1cc2cc(CN(Cc3ccc4c(c3)OCO4)C(=O)c3ccco3)c(=O)[nH]c2cc1C	10 µM [rising, partial curve]
O=C1C2C3C=CC(O3)C2C(=O)N1CC(O)c1ccccc1 (stereo not drawn)	0.00398 µM [falling, full curve, poor fit]
CCC(C)Sc1nc2c(c(=O)[nH]c(=O)n2C)n1CC(O)COc1cccc2ccccc12 (stereo not drawn)	12.6 µM [rising, partial curve]
O=c1c(-c2ccc(F)cc2)nc2cnc(N3CCOCC3)nc2n1C1CC1	6.31 µM [rising, partial curve]
CN(C)S(=O)(=O)N1CCc2ccccc2C1	0.00794 µM [falling, full curve, poor fit]
Cc1cc(C)c2ccc(N)nc2c1O	0.00398 µM [falling, full curve, poor fit]
Cc1cc2c(C)cc(=O)oc2c2c1NCCC2	12.6 µM [rising, partial curve]

SMILES	AC50
O=C(c1ccccc1C(=O)N1CCN(c2ccccc2F)CC1)N1CCN(c2ccccc2F)CC1	12.6 µM [falling, partial curve]
CSc1nc(N2CCOCC2)c2ccccc2n1	10 µM [rising, partial curve]
CS(=O)(=O)CCC(C(=O)N1CCOCC1)N1C(=O)c2cc(Cl)c(Cl)cc2C1=O (stereo not drawn)	0.794 µM [rising, full curve]
CCn1cc(C(=O)N2CCN(Cc3ccc4c(c3)OCO4)CC2)c2cc(OC)c(OC)cc2c1=O	10 µM [rising, partial curve]
Clc1ccccc1-c1nnc2sc(-c3ccccn3)nn12	10 µM [rising, single point]
CC(=O)c1sc(NC(=O)c2ccc(Cn3cc(Br)cn3)o2)nc1C	10 µM [rising, single point]
O=C(NCCN1CCN(c2cccc(Cl)c2)CC1)c1cccn2c(=O)c3ccccc3nc12	2.51 µM [rising, partial curve]
CCC(C)Sc1nc2c(cnn2-c2ccc(C)cc2)c(=O)[nH]1 (stereo not drawn)	2.51 µM [rising, full curve]
COc1ccc(Br)cc1C(=O)Nc1cccc(-c2nnc(-c3ccco3)o2)c1	0.2 µM [rising, partial curve]
Cn1nnnc1SCC(=O)Nc1nc(-c2ccccc2)c(-c2ccccc2)o1	1 µM [falling, full curve, poor fit]
CCOc1cccc(C(=O)N(Cc2ccco2)C2CCS(=O)(=O)C2)c1 (stereo not drawn)	3.98 µM [falling, single point]
COC(=O)c1cc(OC)c(OC)cc1NC(=O)CN1CCCCC1	31.6 µM [falling, single point]
COc1cc(C2C(C#N)=C(C)NC3=C2C(=O)c2ccccc23)cc(OC)c1OC (stereo not drawn)	3.16 µM [rising, partial curve]
COc1ccccc1C(=O)N1CCCC(c2nc(-c3cc(OC)c(OC)c(OC)c3)no2)C1 (stereo not drawn)	10 µM [rising, partial curve]
Cc1cccc(CCNS(=O)(=O)c2cnc[nH]2)c1	0.02 µM [falling, full curve, poor fit]
Cn1c(Br)nc2c1c(=O)n(CC(O)COc1ccccc1)c(=O)n2C (stereo not drawn)	20 µM [rising, partial curve]
CN1CCN(C(=O)c2cc(-c3ccccc3)on2)CC1	0.0501 µM [falling, full curve]
c1ccc(-c2cnnc(SCc3cn4cccnc4n3)n2)cc1	10 µM [rising, partial curve]
CCc1cc2c(N3CCN(c4nnc(CC)s4)CC3)ncnc2s1	12.6 µM [falling, partial curve]
Cc1cc(C)n(-c2ccc(C(=O)OCn3nnc4ccccc4c3=O)cc2)n1	12.6 µM [rising, single point]
O=C(O)CCC(=O)N1CCc2cc(S(=O)(=O)NC3CCCC3)ccc21	0.398 µM [falling, full curve]
CCN(CC)CCCn1c(=S)[nH]c2ccc(Cl)cc2c1=O	10 µM [rising, single point]

Looked up by compound from above:
SMILES	AC50
O=C(O)CCC(=O)N1CCc2cc(S(=O)(=O)NC3CCCC3)ccc21	0.398 µM [falling, full curve]
Cc1cccc(CCNS(=O)(=O)c2cnc[nH]2)c1	0.02 µM [falling, full curve, poor fit]
Cn1nnnc1SCC(=O)Nc1nc(-c2ccccc2)c(-c2ccccc2)o1	1 µM [falling, full curve, poor fit]
CC(=O)c1sc(NC(=O)c2ccc(Cn3cc(Br)cn3)o2)nc1C	10 µM [rising, single point]
CS(=O)(=O)CCC(C(=O)N1CCOCC1)N1C(=O)c2cc(Cl)c(Cl)cc2C1=O (stereo not drawn)	0.794 µM [rising, full curve]
